Data published in paper doi:10.1101/409748.
No constants are given. Whether binding was seen depends on the method and setting. Binding seen in cells or lysates may run through a third protein. Some binding calls cover weakened binding; strength is not graded here. Where a sequence is shown, tags or fusion partners need not be part of it.

Chains of the proteins cited; added tags and fusions are not shown.
UniProt Q08122: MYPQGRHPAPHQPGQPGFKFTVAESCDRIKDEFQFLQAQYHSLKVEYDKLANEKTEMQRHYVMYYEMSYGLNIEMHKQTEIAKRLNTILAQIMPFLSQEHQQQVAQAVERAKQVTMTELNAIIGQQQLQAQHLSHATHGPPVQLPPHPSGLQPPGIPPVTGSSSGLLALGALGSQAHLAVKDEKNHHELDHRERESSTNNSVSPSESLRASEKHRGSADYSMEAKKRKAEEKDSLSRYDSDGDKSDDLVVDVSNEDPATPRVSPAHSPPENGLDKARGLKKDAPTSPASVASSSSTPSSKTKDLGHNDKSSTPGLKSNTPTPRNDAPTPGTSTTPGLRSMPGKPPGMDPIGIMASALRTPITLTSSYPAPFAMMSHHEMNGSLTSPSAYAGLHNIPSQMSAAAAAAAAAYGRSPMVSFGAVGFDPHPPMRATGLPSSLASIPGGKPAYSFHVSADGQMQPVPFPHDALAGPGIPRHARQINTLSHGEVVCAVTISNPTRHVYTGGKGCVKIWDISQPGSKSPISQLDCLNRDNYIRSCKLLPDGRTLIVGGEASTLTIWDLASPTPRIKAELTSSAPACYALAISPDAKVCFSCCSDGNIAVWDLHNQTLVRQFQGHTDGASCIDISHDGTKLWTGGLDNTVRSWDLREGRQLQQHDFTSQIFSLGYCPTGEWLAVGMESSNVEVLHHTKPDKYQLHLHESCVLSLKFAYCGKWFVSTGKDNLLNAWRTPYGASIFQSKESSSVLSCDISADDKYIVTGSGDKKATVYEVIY

Assays:
Assay in all cases: co-IP
EBF2-V5 = biological target: T1, EBF2-V5 (UniProt O08792)
T1 sequence: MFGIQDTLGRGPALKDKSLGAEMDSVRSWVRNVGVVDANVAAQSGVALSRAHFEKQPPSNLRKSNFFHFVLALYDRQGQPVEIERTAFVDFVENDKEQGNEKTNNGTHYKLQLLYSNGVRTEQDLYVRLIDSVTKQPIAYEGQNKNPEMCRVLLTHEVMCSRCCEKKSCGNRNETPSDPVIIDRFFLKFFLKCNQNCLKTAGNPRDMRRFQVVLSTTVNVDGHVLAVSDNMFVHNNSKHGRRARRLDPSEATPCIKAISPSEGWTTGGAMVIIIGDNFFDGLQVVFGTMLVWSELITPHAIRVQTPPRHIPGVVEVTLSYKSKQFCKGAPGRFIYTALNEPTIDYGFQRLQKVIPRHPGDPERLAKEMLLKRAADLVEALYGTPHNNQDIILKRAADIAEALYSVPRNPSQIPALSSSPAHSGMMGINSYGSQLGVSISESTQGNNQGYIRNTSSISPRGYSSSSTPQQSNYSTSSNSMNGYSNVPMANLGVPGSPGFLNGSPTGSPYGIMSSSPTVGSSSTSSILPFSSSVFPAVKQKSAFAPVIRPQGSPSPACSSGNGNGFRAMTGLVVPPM

EBF3-V5 = biological target: T2, EBF3-V5 (UniProt O08791)
T2 sequence: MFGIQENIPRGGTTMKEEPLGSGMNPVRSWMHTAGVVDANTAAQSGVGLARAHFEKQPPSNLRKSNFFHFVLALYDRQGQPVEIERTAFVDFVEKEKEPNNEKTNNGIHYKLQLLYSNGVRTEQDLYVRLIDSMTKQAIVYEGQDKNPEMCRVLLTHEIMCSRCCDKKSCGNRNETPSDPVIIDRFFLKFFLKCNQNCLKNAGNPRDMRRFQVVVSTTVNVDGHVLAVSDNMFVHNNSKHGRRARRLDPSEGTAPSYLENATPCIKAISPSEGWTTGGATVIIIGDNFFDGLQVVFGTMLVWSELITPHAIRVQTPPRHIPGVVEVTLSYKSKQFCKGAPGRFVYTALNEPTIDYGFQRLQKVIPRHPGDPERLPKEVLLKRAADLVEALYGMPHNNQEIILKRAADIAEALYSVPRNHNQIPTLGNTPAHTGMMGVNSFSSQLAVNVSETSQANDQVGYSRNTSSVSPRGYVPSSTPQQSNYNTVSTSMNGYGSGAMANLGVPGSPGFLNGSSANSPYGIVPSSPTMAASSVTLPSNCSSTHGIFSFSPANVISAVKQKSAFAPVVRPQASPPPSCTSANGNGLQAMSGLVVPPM

EBF1-V5 = biological target: T3, EBF1-V5 (UniProt Q07802)
T3 sequence: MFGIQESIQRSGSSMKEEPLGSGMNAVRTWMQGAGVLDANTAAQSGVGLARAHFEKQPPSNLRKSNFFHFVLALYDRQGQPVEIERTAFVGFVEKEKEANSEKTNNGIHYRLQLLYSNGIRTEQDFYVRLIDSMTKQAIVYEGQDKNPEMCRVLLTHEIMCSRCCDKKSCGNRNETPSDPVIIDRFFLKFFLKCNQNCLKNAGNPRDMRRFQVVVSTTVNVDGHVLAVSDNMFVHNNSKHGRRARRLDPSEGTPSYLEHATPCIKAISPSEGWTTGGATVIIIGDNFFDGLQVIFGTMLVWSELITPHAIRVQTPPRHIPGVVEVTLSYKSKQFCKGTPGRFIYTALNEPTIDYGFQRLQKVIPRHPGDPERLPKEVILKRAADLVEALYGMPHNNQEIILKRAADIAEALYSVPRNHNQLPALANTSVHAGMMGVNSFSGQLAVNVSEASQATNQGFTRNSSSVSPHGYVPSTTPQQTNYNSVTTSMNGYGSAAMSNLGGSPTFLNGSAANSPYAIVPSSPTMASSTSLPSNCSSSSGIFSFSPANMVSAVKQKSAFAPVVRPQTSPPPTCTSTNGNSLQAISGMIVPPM

Measured: binding

Flag-TLE3 (from UniProt Q08122 1-772)
binds: all assays above
